Experimental data published in patent US20240199755A1, “ANTAGONISTS AND AGONISTS OF THE TRANSFERRIN RECEPTOR-2 FOR USE IN THE TREATMENT OF DISEASES OF THE BONE” (Kymab Limited, priority 2018, published 2024).
No constants are given. Whether binding was seen depends on the method and setting. Some entries that bind do so weakly or less than the wild type. Where a sequence is shown, tags or fusion partners need not be part of it.

What was measured:
[1] = molecular target: T1, Tfr2 extracellular domain (Tfr2-ECD), murine, aa 103-798, recombinant His-tagged (mouse) (UniProt Q9JKX3); test: SPR, Tfr2-ECD immobilised, BMP receptors 200 nM as analytes
T1 sequence: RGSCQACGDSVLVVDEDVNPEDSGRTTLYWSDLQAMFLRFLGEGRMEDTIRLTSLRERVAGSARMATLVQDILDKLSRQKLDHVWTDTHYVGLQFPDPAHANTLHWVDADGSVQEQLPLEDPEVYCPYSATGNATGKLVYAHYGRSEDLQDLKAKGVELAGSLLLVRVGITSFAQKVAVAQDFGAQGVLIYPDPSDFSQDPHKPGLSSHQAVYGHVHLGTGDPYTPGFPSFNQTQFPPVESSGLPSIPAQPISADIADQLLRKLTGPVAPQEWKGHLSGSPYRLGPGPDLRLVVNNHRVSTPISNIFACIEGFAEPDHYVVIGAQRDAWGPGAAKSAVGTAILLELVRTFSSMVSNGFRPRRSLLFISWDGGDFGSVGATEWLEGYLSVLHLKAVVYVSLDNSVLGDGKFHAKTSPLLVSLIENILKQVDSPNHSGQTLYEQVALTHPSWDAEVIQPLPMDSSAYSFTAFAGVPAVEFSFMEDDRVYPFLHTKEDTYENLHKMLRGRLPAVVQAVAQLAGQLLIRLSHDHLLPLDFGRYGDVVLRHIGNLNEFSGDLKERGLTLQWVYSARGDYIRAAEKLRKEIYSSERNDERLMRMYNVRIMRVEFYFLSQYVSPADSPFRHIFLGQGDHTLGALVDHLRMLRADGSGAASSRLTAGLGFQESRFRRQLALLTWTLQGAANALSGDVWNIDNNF

[2] = molecular target: T1, Tfr2 extracellular domain (Tfr2-ECD), murine, aa 103-798, recombinant His-tagged (mouse); test: SPR, Tfr2-ECD immobilised, BMPR-II at 200 nM as analyte [panel i]
[3] = molecular target: T1, Tfr2 extracellular domain (Tfr2-ECD), murine, aa 103-798, recombinant His-tagged (mouse); test: SPR binding level normalised to molar mass, Tfr2-ECD immobilised, BMP receptor 200 nM
[4] = molecular target: T1, Tfr2 extracellular domain (Tfr2-ECD), murine, aa 103-798, recombinant His-tagged (mouse); test: SPR binding level normalised to molecular weight, Tfr2-ECD immobilised, BMP receptor 200 nM [panel a]

Measured: binding

B1: BMPR-II (BMP receptor, R&D Systems) (receptor)
chain: SQNQERLCAFKDPYQQDLGIGESRISHENGTILCSKGSTCYGLWEKSKGDINLVKQGCWSHIGDPQECHYEECVVTTTPPSIQNGTYRFCCCSTDLCNVNFTENFPPPDTTPLSPPHSFNRDET
binds: [1] | [2] | [3] | [4]
